# Measurements reported in PubChem BioAssay AID686938 (Drosophila RNAi Screening Center, 2013)
# Assay: 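Fly genes required for calcium entry once internal stores are emptied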 (primary screen)
# System: Drosophila S2R+ cells
# Knock-down reagent: long dsRNA against Drosophila genes, about 0.25 µg dsRNA per well, roughly 10,000 cells
# Duration: 5 days of knock-down before the calcium assay
# Treatment: thapsigargin (SERCA pump blocker) to empty calcium stores; entry signal taken 4 min after adding it
# Read-out: 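Duplicate raw fluo-4 intensities per well from a plate reader, at rest and four minutes after thapsigargin emptied calcium stores; entry-to-rest ratio filled for only some wells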
# Direction: calcium entry signal: higher = stronger calcium signal after store depletion; resting calcium signal: higher = higher resting calcium signal
# Call rule: 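Hit if the duplicate-averaged plate z-score for entry over resting signal is under −3; wells with weak total dye signal (Fmax z < −2) or more than 5 off-targets removed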
# Calls: active = strongly reduced calcium entry; inactive = no strong reduction
# In all, the deposit lists about 23,000 reagents; this is a random part of those that have a named target and a result. Of all reagents, 75 (0.33%) got an active call. 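Raw plate signals without normalisation; calls rest on plate z-scores that were not deposited; ratio present for only 364 wells.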 A number with no mark means an inactive call. A plus sign joins genes that one reagent is predicted to hit. The record does not give: the dose of the treatment.
target,dsRNA,"calcium entry signal, replicate 1 (fluorescence units)","calcium entry signal, replicate 2 (fluorescence units)","resting calcium signal, replicate 1 (fluorescence units)","resting calcium signal, replicate 2 (fluorescence units)"
CR10032,DRSC12499,4.45e7,3.76e7,2.12e7,1.75e7
St1,DRSC04504,3.66e7,,2.04e7,
TrissinR,DRSC02334,3.89e7,3.33e7,1.74e7,1.64e7
TrissinR,DRSC02335,4.10e7,4.05e7,2.00e7,1.93e7
TrissinR,DRSC02336,2.83e7,2.45e7,1.39e7,1.21e7
CG33296,DRSC00998,3.32e7,4.20e7,1.78e7,1.72e7
CG32639,DRSC18972,3.80e7,3.33e7,1.91e7,1.52e7
CG9525,DRSC03249,3.22e7,4.04e7,1.46e7,1.79e7
CG13502,DRSC04147,4.52e7,5.55e7,2.26e7,2.43e7
CG10862,DRSC08170,2.91e7,3.92e7,1.54e7,1.78e7
Csp,DRSC11860,3.26e7,4.48e7,1.63e7,2.89e7
Ubx,DRSC16891,2.66e7,4.56e7,1.30e7,2.11e7
CG43111,DRSC05796,2.25e7,4.60e7,1.06e7,2.00e7
CG12645,DRSC17851,3.11e7,3.67e7,1.57e7,1.84e7
CG8360,DRSC03085,3.91e7,3.17e7,1.96e7,1.47e7
Uch-L5,DRSC11314,4.28e7,4.06e7,3.09e7,1.84e7
nes,DRSC11375,2.23e7,3.56e7,1.10e7,1.48e7
ProtB,DRSC03373,3.42e7,2.12e7,1.48e7,9.86e6
CG4928,DRSC19342,2.88e7,2.58e7,1.39e7,1.26e7
CG11085,DRSC19374,3.16e7,3.90e7,1.51e7,1.88e7
CG11085,DRSC22832,2.91e7,4.37e7,1.43e7,1.99e7
CG7512,DRSC10863,2.82e7,3.77e7,1.60e7,1.57e7
Sec31,DRSC07131,4.84e7,4.42e7,1.93e7,1.91e7
FMRFaR,DRSC08555,4.19e7,3.81e7,2.20e7,1.94e7
CG1137,DRSC12529,4.46e7,2.44e7,2.14e7,1.25e7
CG34429,DRSC10120,3.13e7,3.86e7,1.70e7,1.67e7
Den1,DRSC07195,3.04e7,4.13e7,1.56e7,1.79e7
CG31122,DRSC14787,4.54e7,4.64e7,1.97e7,2.45e7
CG31122,DRSC16286,4.23e7,5.18e7,5.08e7,2.30e7
CG2930,DRSC17730,4.03e7,4.78e7,1.77e7,2.19e7
timeout,DRSC12950,2.54e7,2.59e7,1.21e7,1.22e7
timeout,DRSC17078,2.54e7,3.08e7,1.28e7,4.51e7
timeout,DRSC17079,2.19e7,2.66e7,1.15e7,4.91e7
timeout,DRSC17080,2.17e7,2.74e7,1.16e7,4.19e7
timeout,DRSC17081,2.83e7,6.58e7,1.33e7,9.22e7
timeout,DRSC21535,3.78e7,3.83e7,2.12e7,1.79e7

Part of the list above in another layout:
{"target": "St1", "dsRNA": "DRSC04504", "calcium entry signal, replicate 1 (fluorescence units)": 3.66e7, "resting calcium signal, replicate 1 (fluorescence units)": 2.04e7}
{"target": "TrissinR", "dsRNA": "DRSC02334", "calcium entry signal, replicate 1 (fluorescence units)": 3.89e7, "calcium entry signal, replicate 2 (fluorescence units)": 3.33e7, "resting calcium signal, replicate 1 (fluorescence units)": 1.74e7, "resting calcium signal, replicate 2 (fluorescence units)": 1.64e7}
{"target": "TrissinR", "dsRNA": "DRSC02335", "calcium entry signal, replicate 1 (fluorescence units)": 4.10e7, "calcium entry signal, replicate 2 (fluorescence units)": 4.05e7, "resting calcium signal, replicate 1 (fluorescence units)": 2.00e7, "resting calcium signal, replicate 2 (fluorescence units)": 1.93e7}
{"target": "TrissinR", "dsRNA": "DRSC02336", "calcium entry signal, replicate 1 (fluorescence units)": 2.83e7, "calcium entry signal, replicate 2 (fluorescence units)": 2.45e7, "resting calcium signal, replicate 1 (fluorescence units)": 1.39e7, "resting calcium signal, replicate 2 (fluorescence units)": 1.21e7}
{"target": "CG33296", "dsRNA": "DRSC00998", "calcium entry signal, replicate 1 (fluorescence units)": 3.32e7, "calcium entry signal, replicate 2 (fluorescence units)": 4.20e7, "resting calcium signal, replicate 1 (fluorescence units)": 1.78e7, "resting calcium signal, replicate 2 (fluorescence units)": 1.72e7}
{"target": "CG32639", "dsRNA": "DRSC18972", "calcium entry signal, replicate 1 (fluorescence units)": 3.80e7, "calcium entry signal, replicate 2 (fluorescence units)": 3.33e7, "resting calcium signal, replicate 1 (fluorescence units)": 1.91e7, "resting calcium signal, replicate 2 (fluorescence units)": 1.52e7}
{"target": "CG9525", "dsRNA": "DRSC03249", "calcium entry signal, replicate 1 (fluorescence units)": 3.22e7, "calcium entry signal, replicate 2 (fluorescence units)": 4.04e7, "resting calcium signal, replicate 1 (fluorescence units)": 1.46e7, "resting calcium signal, replicate 2 (fluorescence units)": 1.79e7}
{"target": "CG13502", "dsRNA": "DRSC04147", "calcium entry signal, replicate 1 (fluorescence units)": 4.52e7, "calcium entry signal, replicate 2 (fluorescence units)": 5.55e7, "resting calcium signal, replicate 1 (fluorescence units)": 2.26e7, "resting calcium signal, replicate 2 (fluorescence units)": 2.43e7}
{"target": "CG10862", "dsRNA": "DRSC08170", "calcium entry signal, replicate 1 (fluorescence units)": 2.91e7, "calcium entry signal, replicate 2 (fluorescence units)": 3.92e7, "resting calcium signal, replicate 1 (fluorescence units)": 1.54e7, "resting calcium signal, replicate 2 (fluorescence units)": 1.78e7}

Next results:
target,dsRNA,"calcium entry signal, replicate 1 (fluorescence units)","calcium entry signal, replicate 2 (fluorescence units)","resting calcium signal, replicate 1 (fluorescence units)","resting calcium signal, replicate 2 (fluorescence units)"
Act42A,DRSC04835,3.73e7,3.77e7,1.89e7,1.79e7
Cyp6a20,DRSC07380,3.49e7,3.59e7,1.71e7,1.70e7
mod(mdg4),DRSC13474,4.49e7,3.23e7,2.39e7,1.62e7
mod(mdg4),DRSC13475,4.34e7,3.05e7,2.43e7,1.56e7
mod(mdg4),DRSC13478,4.39e7,3.09e7,2.25e7,1.52e7
mod(mdg4),DRSC13479,4.90e7,2.97e7,2.18e7,1.43e7
mod(mdg4),DRSC15042,2.38e7,3.11e7,2.90e7,1.34e7
mod(mdg4),DRSC17000,5.17e7,4.37e7,2.29e7,1.79e7
FucTC,DRSC20966,3.38e7,4.60e7,1.55e7,2.00e7
slbo,DRSC04716,3.51e7,2.21e7,1.85e7,1.17e7
UQCR-C1,DRSC15508,3.44e7,4.11e7,1.66e7,2.06e7
Nrx-1,DRSC16184,4.83e7,2.87e7,2.45e7,1.50e7
Yip1d1,DRSC02166,4.36e7,3.15e7,1.85e7,1.58e7
CG9164,DRSC19087,1.97e7,3.38e7,1.07e7,1.60e7
CG9164,DRSC20162,2.83e7,3.36e7,1.47e7,1.61e7
CG1722,DRSC20547,3.52e7,4.07e7,2.09e7,1.75e7
CG33191 + Pif1B,DRSC12706,4.10e7,4.53e7,1.92e7,2.28e7
Dtwd2 + Obp84a,DRSC12603,4.21e7,4.75e7,2.22e7,2.14e7
Orc1,DRSC07496,4.16e7,2.06e7,1.94e7,1.23e7
msl-3,DRSC11371,3.42e7,3.59e7,1.68e7,1.55e7
Ge-1,DRSC02938,4.72e7,,2.43e7,
Pex10,DRSC08599,3.16e7,5.22e7,1.62e7,2.45e7
Pex10,DRSC22021,2.54e7,4.22e7,1.22e7,2.18e7
